This passage reports z-score results from PubChem BioAssay AID1508600 (Functional Genomics Laboratory (NCATS/FGL), 2020).

Screen size: about 53,000 sequences; about 3,700 (7%) were called active.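 The calls were made as follows: active = gene knockdowns whose robust z-score for IL-1 alpha signal is at least 2 or at most -2, so actives lie on both sides; inactive = the rest.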 The list shows a part of the results.

The nature of this assay: Components of the Cytosolic LPS Sensing Pathway: Gene Identification via Genome-wide siRNA Screen.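 Also: robust z of the log signal after scaling to non-targeting control siRNA wells of the plate.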 The settings on record: RAW264.7 macrophages, IL-1a HTRF, actives lie on both sides, screened at 100 nM (by protocol), cells primed 5 h with Pam3CSK4 first. The essentials:
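Using IL-1a HTRF as read-out, the screen measured release from RAW264.7 cells after 48h siRNA knockdown (100 nM), 5 h Pam3CSK4 priming and 24 h cytosolic LipidA. Values were expressed relative to negative-control wells as robust z-scores.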
(In TR-FRET formats the signal depends on donor and acceptor labels being close together.)
On to GGCUAUGCCAUGAACUUCUTT against Inhbc, for which the z-score was inactive: 0.299.
The figure for GGAACGUGAAUCUACAGCATT against Tex43 is active: -2.73.
The figure for GGGUUAGGUCAUCUAAAUGTT against Slf1 is inactive: 0.31; for GGAAGAUAAAUCACAAUCATT against Cdc37l1 it is inactive: 0.051.
As for GGUGUUUUGCUGUUAAUAATT against Foxd4, the z-score is inactive: 0.495.
For GGCUCUUGUUGAUUGGGCUTT against Adamtsl5, the z-score was inactive: 0.242.
Take GGGUCAAAGCAGAAAAAUCTT against Hrnr: the z-score was inactive: -1.58.
The figure for CGAGGAUUUCUAUCCUGACTT against Ascc1 is inactive: -0.764; for GGGAACUCGAACAAGAAUUTT against Six1 it is inactive: 1.11.
With GGUGAAAUCCAGGAGUUUUTT against Rnd3 the figure was active: 2.02; with GGGCAGCAUCGGACUAAAUTT against Agtr1a, active: 2.35; with GGAUAUCAAAGACAAAGCATT against Vps53, active: -2.58.
With GGUAGAGCGCAGAAUUAGATT against Luc7l3 the figure was inactive: 0.736; with GGACAUCGGAUUCUACACCTT against Psg19, inactive: 0.531.
For the sequence GCAAUUGCUUUGCAUUUACTT against Rabgap1l, the z-score was inactive: -0.000836.
The figure for GCACCUCGUUCACCAAUAUTT against Hs2st1 is inactive: 1.67; for GCUGAGACCCAGAUGCAAUTT against Mal it is inactive: 0.858; for CCCACUUUAUAGGACAUAUTT against Zhx3 it is inactive: -1.46.
With GGAGUGUAUGAUGCUGAUGTT against S100a9 the figure was inactive: 0.118; with GCAAUUAGUAUCUAUUACCTT against Txndc17, inactive: -0.448; with GGAGACAGAUUGCUACAGATT against Itga7, inactive: -0.884.
With GCCCGUAAAACUCUUUCAGTT against Spata31, the z-score is inactive: 0.643.
With “GGACCUGCCUUACAGCUUUTT against A430090L17Rik” the figure was inactive: 0.0156; with GGCCAGGAAAGCAUUAAGATT against Trim2, inactive: -0.0543; with GGCAGAUGCAAUCCAUUGGTT against Tas2r104, inactive: -0.729.
The figure for GGCAUCUUUCACAGUUUUGTT against Hspa12b is active: 2.13; for GGCCUUGAUAUCAACAAGATT against Pkia it is inactive: 0.103; for GGACUGUGCAGUUAUUGUCTT against Psma6 it is active: -2.17.
With ACAAAGAAGCGAUUUCUAUTT against Wtip the figure was inactive: 1.32; with GCAAGAACCUGGUGCGAAATT against Lrrc4b, inactive: -0.53; with GCGAAAAGACCAAUAAUGGTT against Ebf1, inactive: -0.384.
With GGAACAUCCUUUGAAAACATT against Ptprk, the z-score was inactive: 0.267.
With GGAAGAACUGGAAUGAUAUTT against Clec4e the figure was inactive: -0.116.
Consider GGACGUAGUACCCAUGAAUTT against Adora2a, for which the z-score was inactive: -0.275.
The figure for GGACACUAGUCGGCUGCUUTT against Naa38 is inactive: 0.838; for GGGUGCCUACUUGAUCCUUTT against Hgh1 it is inactive: 1.63; for GCUUAAAGUACGAUCAGCUTT against Wdr3 it is inactive: 0.12.
The figure for GGAUUGUGAGGUUGUAAUGTT against Hnrnpu is inactive: -0.297; for GGAAGCUAUAUAUCAAGAATT against Tcea1 it is inactive: 0.69.
With CGAGUGACAAAUGAAAUCGTT against Ercc4 the figure was inactive: -0.926; with CCUCCACUUCGUGAGCGAATT against Xxylt1, inactive: -1.25.
With CCAGACCAGGGAGAAAUCATT against Rdh18-ps, the z-score was inactive: -1.78.
On to “GGGCAAAAGCUAAUGACUCTT against 4933409K07Rik”, for which the z-score is inactive: 0.2.
As for GGCGUGGAUGACCUAGACUTT against Actr3, the z-score is inactive: 0.165.
Take GGAUAUGUUUCUAGUAUCATT against Cd226: the z-score was inactive: -0.0887.
The figure for GCAGUACAUAGGACAAUACTT against Ccdc97 is inactive: 0.0835; for GGAUCUGAGAAAUGAAAUCTT against Slc3a1 it is inactive: -0.701; for GGAUCUCAUUCACAGAUUATT against Rasgrp3 it is inactive: -0.562.
For the sequence GGAGAAACUGGCUUUCUCUTT against Zp3, the z-score was inactive: 0.918.
The figure for CCUGCUCUAGAGAAGAAGUTT against Naxe is inactive: 0.879.
As for CCUACAACGAACGGGAGAATT against Dpm1, the z-score was inactive: 0.408.
The figure for CUCCAUAAAAGGAAGUCUATT against Olfr1202 is inactive: -1.31; for GGAGCUAGCUAGAACAAGUTT against Slmap it is inactive: 1.58.
Regarding GGCAAUUGUUUUUAGAGAGTT against Cenpn, the z-score was inactive: 0.857.
As for GGAGCUCAUGAAGAUGAAGTT against Rffl, the z-score was inactive: 0.906.
GGAAGUGAGUUUCAAAGCCTT against H1f6: the z-score is inactive: -0.55.
The figure for GGGCACAUUAUGCAGAACUTT against Relt is inactive: 0.0315.
Consider CCGAGUGGUUAGCUACCAGTT against Ccl24, for which the z-score is active: 2.4.
With GGGCUUUCUGCUGAAGAGATT against Leng9 the figure was inactive: -1.94; with GGUAUCAUUUACUUUGAACTT against Gtf2f2, inactive: -0.0825; with CCAUCAUUUAUGAAGACCCTT against Dcaf7, inactive: -1.44.
GGAGUUCUUUUUUUCUGUGTT against Pkd1: the z-score is inactive: 0.218.
For the sequence GCCCAUAGGUGCAGAUUCCTT against Fhl4, the z-score is inactive: 0.0834.
GGACAAGAACUACAUUGAGTT against Eefsec: the z-score is inactive: 1.44.
On to CCAAGUCCCUUUGUGGUGUTT against Twnk, for which the z-score was inactive: -0.749.
Consider GAAUGGAAGACGAAAUUUGTT against Ctla2a, for which the z-score was inactive: 0.42.
As for GGUUCUUUUGGUCUUCGUGTT against Cox16, the z-score is inactive: 0.203.
With GGACCAGAAGGAGAAGAGUTT against Prg2 the figure was inactive: -1.77.
The figure for GGGAUGAGUAUGCUUAUGGTT against Sec16b is inactive: -0.116.
